Data as given in PubChem BioAssay AID1259308 (NCATS, 2017)
Here is a random part of about 59,000 reagents. About 1,510 of them (2.6%) count as active. 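Calls use total luciferase alone and ignore viability, so some active siRNAs may act by altering cell number.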 The numbers tell different reagents against one gene apart. Further read-outs or replicates are left out here.

- Purpose: 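Knock-downs that increase output of a recombinant reporter protein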 (primary screen)
- Cell system: human HEK293 embryonic kidney cells stably expressing firefly luciferase (HEK-CMV-Luc2-Hygro)
- Knock-down reagent: single siRNA against human genes, 0.8 pmol siRNA per well
- Duration: 72 h
- Read-out: 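Luciferase light (ONE-Glo) measured on one replicate plate set and viability (CellTiter-Glo) on the other, scaled to a negative control siRNA, with robust z-scores and luciferase per cell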
- Scale: total luciferase, z-score and total luciferase, % of control: higher = more reporter protein produced
- Call rule: 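Active when the median/MAD z-score for overall luciferase is greater than 3; a gene was taken forward for validation with new siRNAs if at least two of its three siRNAs passed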
- Meaning of the calls: active = raised luciferase; inactive = no rise

What is on record for LRRC46 #1?
total luciferase, z-score: 0.249; total luciferase, % of control: 86.8; call: inactive

With LRRC46 #2, how do the results read?
total luciferase, z-score: -0.408; total luciferase, % of control: 73.8; call: inactive

For LRRC46 #3, what does the deposit list?
total luciferase, z-score: -0.661; total luciferase, % of control: 68.7; call: inactive

Which result is listed for SCGB1D1 #1?
total luciferase, z-score: -0.371; total luciferase, % of control: 74.5; call: inactive

With SCGB1D1 #2, what was measured?
total luciferase, z-score: -0.0198; total luciferase, % of control: 81.5; call: inactive

Which result is listed for SCGB1D1 #3?
total luciferase, z-score: -0.728; total luciferase, % of control: 67.4; call: inactive

With RACK1 #1, how do the results read?
total luciferase, z-score: -0.105; total luciferase, % of control: 79.8; call: inactive

With RACK1 #2, what does the deposit list?
total luciferase, z-score: 0.499; total luciferase, % of control: 91.8; call: inactive

With RACK1 #3, what was measured?
total luciferase, z-score: -0.343; total luciferase, % of control: 75.1; call: inactive

Records above whose target name starts with R or r:
RACK1 #1: total luciferase, z-score = -0.105; total luciferase, % of control = 79.8; call = inactive
RACK1 #2: total luciferase, z-score = 0.499; total luciferase, % of control = 91.8; call = inactive
RACK1 #3: total luciferase, z-score = -0.343; total luciferase, % of control = 75.1; call = inactive

Continued.
What did the screen give for FMNL1 #1?
total luciferase, z-score: -0.932; total luciferase, % of control: 63.3; call: inactive

For FMNL1 #2, what does the deposit list?
total luciferase, z-score: 0.043; total luciferase, % of control: 82.7; call: inactive

For FMNL1 #3, what was measured?
total luciferase, z-score: -1.12; total luciferase, % of control: 59.7; call: inactive

With NDUFA12 #1, what was measured?
total luciferase, z-score: -1.51; total luciferase, % of control: 51.8; call: inactive

For NDUFA12 #2, how do the results read?
total luciferase, z-score: -0.028; total luciferase, % of control: 81.3; call: inactive

What did the screen give for NDUFA12 #3?
total luciferase, z-score: -0.463; total luciferase, % of control: 72.7; call: inactive

With PGLYRP1 #1, what was measured?
total luciferase, z-score: 0.117; total luciferase, % of control: 84.2; call: inactive

With PGLYRP1 #2, what was measured?
total luciferase, z-score: 0.0241; total luciferase, % of control: 82.4; call: inactive

With PGLYRP1 #3, what was measured?
total luciferase, z-score: -0.593; total luciferase, % of control: 70.1; call: inactive

What did the screen give for SIRT7 #1?
total luciferase, z-score: -1.89; total luciferase, % of control: 44.3; call: inactive

For SIRT7 #2, how do the results read?
total luciferase, z-score: -0.0186; total luciferase, % of control: 81.5; call: inactive

For SIRT7 #3, how do the results read?
total luciferase, z-score: -0.701; total luciferase, % of control: 67.9; call: inactive
